Results on 28 targets are retold here after the supplement of paper PMC10849652.

The chains behind the UniProt entries cited, without tags or fusion partners. Where a name states a change or a piece, a line headed by the entry shows the natural chain unless it says otherwise.
UniProt O14744, whole entry, looked up: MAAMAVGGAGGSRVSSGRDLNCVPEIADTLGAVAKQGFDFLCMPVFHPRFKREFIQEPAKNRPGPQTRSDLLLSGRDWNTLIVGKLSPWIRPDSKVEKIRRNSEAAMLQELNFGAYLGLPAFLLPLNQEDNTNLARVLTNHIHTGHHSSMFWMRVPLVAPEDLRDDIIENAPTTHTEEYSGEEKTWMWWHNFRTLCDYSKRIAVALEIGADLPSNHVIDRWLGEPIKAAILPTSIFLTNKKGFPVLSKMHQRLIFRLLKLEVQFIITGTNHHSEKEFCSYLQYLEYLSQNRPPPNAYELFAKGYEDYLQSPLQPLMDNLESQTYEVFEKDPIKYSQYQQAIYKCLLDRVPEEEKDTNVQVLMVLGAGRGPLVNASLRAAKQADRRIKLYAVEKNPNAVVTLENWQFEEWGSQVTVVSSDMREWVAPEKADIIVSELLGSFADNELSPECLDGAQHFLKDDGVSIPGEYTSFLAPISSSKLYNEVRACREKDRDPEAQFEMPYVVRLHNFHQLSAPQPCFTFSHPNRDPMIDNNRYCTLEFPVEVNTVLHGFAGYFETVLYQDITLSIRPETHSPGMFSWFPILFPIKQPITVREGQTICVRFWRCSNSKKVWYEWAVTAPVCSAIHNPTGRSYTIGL
UniProt Q4J6C6, whole entry, looked up: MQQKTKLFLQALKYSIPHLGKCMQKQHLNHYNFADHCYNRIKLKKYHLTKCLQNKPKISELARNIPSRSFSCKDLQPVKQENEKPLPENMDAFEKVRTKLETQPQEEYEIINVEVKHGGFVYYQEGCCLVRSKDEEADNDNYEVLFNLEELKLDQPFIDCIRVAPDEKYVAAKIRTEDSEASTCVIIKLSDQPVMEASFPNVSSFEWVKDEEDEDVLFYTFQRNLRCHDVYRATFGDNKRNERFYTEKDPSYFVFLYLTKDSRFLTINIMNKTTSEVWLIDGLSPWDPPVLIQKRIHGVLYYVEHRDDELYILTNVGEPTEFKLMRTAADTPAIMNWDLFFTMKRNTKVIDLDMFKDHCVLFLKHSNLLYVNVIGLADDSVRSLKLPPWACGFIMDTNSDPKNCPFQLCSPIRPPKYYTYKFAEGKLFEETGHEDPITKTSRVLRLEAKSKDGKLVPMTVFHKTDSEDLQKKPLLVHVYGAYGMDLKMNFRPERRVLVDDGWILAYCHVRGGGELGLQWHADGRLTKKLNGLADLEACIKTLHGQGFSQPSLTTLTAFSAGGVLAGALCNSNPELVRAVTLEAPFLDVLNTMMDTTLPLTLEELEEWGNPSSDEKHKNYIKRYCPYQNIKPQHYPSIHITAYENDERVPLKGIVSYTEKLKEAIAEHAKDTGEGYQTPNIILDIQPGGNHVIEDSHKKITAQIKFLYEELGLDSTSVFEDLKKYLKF
UniProt P11908: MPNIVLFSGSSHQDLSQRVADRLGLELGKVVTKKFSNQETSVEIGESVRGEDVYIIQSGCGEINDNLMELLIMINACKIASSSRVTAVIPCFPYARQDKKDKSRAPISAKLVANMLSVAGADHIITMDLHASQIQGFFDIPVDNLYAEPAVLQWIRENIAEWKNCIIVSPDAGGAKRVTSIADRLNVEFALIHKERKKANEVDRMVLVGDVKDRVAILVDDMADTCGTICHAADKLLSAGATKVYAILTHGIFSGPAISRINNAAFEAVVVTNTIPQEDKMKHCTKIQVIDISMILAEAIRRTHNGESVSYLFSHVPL
UniProt Q96BP3: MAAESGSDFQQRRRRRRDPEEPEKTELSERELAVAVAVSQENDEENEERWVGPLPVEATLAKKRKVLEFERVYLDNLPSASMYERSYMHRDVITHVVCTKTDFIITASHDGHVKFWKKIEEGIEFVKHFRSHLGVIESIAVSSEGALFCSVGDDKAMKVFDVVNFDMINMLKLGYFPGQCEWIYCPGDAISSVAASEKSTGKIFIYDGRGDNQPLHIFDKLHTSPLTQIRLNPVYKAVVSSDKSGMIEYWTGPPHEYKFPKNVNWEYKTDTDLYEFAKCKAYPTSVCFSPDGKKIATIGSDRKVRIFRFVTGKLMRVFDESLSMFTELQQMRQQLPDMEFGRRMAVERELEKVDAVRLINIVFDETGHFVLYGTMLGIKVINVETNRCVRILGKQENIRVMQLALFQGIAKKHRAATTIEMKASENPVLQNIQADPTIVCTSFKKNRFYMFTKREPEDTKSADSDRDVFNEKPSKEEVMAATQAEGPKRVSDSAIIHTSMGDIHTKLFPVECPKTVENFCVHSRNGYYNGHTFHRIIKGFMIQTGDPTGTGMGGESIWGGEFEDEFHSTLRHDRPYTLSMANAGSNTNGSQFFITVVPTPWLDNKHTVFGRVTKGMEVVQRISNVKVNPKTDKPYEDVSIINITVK
UniProt P63098, whole entry, looked up: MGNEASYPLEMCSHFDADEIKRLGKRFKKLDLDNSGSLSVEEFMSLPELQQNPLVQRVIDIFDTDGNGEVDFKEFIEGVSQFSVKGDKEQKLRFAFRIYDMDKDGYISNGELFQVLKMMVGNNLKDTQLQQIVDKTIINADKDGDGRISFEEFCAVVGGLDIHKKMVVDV
UniProt P63151: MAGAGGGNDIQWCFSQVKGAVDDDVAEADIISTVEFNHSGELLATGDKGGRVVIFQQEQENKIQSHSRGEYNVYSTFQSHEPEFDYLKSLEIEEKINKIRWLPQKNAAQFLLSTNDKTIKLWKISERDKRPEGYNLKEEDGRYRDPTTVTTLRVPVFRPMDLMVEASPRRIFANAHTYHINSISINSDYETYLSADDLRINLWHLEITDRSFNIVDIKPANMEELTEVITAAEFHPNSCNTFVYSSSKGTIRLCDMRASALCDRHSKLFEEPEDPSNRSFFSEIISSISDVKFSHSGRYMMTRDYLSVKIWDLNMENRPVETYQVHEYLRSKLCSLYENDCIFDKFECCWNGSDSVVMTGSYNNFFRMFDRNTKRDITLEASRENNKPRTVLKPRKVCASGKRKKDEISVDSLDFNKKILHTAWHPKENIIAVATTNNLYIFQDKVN
UniProt Q9UNN8: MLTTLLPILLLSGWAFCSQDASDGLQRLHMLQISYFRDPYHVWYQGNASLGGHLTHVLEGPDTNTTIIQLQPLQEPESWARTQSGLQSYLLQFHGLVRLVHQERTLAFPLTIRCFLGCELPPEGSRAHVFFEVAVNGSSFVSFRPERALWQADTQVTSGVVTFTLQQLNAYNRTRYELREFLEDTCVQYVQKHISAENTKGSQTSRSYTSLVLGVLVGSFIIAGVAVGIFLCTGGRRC
UniProt Q969Q6: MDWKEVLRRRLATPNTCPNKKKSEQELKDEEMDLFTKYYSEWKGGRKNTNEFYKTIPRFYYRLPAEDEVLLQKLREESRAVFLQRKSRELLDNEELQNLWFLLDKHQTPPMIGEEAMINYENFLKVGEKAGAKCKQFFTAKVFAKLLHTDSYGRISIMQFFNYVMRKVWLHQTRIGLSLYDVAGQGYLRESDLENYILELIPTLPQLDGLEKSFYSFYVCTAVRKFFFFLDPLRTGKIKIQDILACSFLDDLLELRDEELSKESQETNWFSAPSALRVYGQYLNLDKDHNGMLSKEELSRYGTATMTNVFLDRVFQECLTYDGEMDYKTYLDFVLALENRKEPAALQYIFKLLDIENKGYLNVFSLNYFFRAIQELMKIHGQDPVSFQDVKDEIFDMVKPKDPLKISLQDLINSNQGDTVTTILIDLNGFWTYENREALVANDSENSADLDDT
UniProt Q13162: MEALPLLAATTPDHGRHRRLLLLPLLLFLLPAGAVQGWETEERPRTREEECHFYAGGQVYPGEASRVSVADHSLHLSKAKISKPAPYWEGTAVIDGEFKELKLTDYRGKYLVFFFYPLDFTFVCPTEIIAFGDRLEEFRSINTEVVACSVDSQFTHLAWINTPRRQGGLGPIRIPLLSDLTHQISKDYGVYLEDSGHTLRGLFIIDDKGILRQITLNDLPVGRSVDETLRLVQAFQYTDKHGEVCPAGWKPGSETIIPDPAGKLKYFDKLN
UniProt O60927: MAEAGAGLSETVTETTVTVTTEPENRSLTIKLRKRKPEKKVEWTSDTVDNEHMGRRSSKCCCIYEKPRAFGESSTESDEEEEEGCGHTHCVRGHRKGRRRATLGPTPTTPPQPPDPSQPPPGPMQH
UniProt O00743: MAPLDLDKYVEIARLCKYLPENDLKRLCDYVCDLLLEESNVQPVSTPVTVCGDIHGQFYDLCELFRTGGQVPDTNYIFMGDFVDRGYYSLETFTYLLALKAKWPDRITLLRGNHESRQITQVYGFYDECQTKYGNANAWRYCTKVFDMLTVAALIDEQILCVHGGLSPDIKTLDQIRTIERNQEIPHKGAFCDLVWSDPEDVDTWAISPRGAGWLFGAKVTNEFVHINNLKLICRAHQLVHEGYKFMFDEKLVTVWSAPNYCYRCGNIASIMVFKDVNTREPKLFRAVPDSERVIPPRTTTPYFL
UniProt P78395, whole entry, looked up: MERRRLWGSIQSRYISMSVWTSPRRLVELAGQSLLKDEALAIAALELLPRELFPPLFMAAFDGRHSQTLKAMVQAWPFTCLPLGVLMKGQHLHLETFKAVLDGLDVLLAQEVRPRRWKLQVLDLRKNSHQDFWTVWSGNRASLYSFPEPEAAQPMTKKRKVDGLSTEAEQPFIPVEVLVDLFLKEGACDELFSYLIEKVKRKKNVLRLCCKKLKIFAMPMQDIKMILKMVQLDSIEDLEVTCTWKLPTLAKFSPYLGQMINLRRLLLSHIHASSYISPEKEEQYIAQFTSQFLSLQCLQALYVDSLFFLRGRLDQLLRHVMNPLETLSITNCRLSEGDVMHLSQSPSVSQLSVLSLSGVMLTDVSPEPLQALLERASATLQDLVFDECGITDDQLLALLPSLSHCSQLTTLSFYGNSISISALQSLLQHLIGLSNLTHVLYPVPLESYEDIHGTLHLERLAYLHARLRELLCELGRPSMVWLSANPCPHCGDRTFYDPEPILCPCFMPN
UniProt O43172: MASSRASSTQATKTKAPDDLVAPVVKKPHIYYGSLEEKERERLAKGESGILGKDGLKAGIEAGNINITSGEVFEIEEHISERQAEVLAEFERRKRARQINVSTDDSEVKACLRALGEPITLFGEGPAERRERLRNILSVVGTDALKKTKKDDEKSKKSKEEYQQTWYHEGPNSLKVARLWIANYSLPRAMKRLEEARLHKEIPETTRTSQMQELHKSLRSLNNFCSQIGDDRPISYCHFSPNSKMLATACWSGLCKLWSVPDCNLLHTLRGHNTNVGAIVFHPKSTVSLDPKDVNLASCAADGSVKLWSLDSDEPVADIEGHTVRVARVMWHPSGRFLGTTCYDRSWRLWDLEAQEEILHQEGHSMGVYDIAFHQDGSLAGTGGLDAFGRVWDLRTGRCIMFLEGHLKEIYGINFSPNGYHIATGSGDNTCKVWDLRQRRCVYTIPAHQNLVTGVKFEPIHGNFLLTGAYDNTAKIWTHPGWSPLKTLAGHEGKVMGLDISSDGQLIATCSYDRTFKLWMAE
UniProt P67775, whole entry, looked up: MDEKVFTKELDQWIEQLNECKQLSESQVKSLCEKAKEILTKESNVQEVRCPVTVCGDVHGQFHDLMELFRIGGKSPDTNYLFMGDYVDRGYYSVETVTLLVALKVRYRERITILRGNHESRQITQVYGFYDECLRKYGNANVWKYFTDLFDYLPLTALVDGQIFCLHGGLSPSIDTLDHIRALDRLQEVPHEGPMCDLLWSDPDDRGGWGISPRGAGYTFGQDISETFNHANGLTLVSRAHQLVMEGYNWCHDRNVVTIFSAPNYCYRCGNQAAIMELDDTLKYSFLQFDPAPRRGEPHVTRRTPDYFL
UniProt Q6IN85: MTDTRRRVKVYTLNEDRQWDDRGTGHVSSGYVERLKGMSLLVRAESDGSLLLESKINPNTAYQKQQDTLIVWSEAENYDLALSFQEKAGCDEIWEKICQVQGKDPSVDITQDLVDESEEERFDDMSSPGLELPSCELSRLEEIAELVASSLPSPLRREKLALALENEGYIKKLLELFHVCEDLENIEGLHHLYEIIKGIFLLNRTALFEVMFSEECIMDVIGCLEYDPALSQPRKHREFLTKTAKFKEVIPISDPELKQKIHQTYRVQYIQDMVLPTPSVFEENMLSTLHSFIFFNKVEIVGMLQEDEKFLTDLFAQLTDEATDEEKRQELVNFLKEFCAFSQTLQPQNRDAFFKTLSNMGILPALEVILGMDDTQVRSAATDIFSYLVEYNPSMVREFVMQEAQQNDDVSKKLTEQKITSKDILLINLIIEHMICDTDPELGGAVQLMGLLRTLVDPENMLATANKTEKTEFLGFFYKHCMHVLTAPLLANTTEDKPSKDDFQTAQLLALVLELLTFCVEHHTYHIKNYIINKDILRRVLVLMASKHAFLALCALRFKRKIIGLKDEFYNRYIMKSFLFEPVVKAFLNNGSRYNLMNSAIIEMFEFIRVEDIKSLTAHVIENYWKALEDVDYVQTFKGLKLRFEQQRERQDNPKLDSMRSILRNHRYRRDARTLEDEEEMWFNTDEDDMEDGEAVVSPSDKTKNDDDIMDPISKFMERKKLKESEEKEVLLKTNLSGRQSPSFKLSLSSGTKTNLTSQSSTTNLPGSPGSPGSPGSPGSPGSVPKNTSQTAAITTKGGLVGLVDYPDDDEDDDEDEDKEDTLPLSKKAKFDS

This is one part of the list.

Compound in this test: c1cn2cc(-c3ccc4cn[nH]c4c3)nc(Nc3ccc(N4CCOCC4)cc3)c2n1 [entospletinib]
Kind of test: log2 fold change, soluble protein after heating vs DMSO (PISA); higher = thermal stabilisation; K562 cells, 10 uM, 30 min; active = over 0.2 and 3.5 SD of the protein, either way, in both replicates (recomputed). The method, boiled down: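 Quantification of soluble protein used TMTpro 16plex LC-MS/MS, with channel sums equalised. Samples were the supernatant after 21,000xg for 90 min of pooled aliquots from K562 cells (2×10^6 cells/mL) treated with 10 μM compound for 30 min, heated for 3 min over 48°C-58°C, and extracted in PBS with 0.5% NP-40 at 4°C. Values, from duplicates, describe thermal stability against control samples on a log2 fold-change scale.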
In the case of PRMT5 (UniProt O14744), the log2 fold change is inactive: -0.002.

For PREPL (UniProt Q4J6C6), the log2 fold change was inactive: 0.005. With PPP6R2 isoform 5 (UniProt O75170) the figure was inactive: -0.022. With PRPS2 isoform 2 (UniProt P11908) the figure was inactive: -0.023. With PREB (UniProt Q9HCU5) the figure was inactive: -0.049; with PPWD1 (UniProt Q96BP3), inactive: -0.008. As for PPP1R9A isoform 3 (UniProt Q9ULJ8), the log2 fold change was inactive: 0.068. With PPP3R1 (UniProt P63098) the figure was inactive: 0.054; with PPP2R2A isoform 2 (UniProt P63151), inactive: -0.031; with PPP1R14C (UniProt Q8TAE6), inactive: -0.022.

With PROCR (UniProt Q9UNN8), the log2 fold change was inactive: 0.018. The same measure for PPP2R3C (UniProt Q969Q6): inactive: 0.308.

For the target PRDX4 (UniProt Q13162), the log2 fold change was inactive: -0.008. For PREP (UniProt P48147), the log2 fold change was inactive: 0.069. On to PRPF8 (UniProt Q6P2Q9), for which the log2 fold change is inactive: -0.014. The same measure for PRKCSH (UniProt K7ELL7): inactive: -0.002. With PPP1R11 (UniProt O60927) the figure was inactive: -0.024; with PPP6C isoform 3 (UniProt O00743), inactive: 0.031. With PRDM2 (UniProt Q13029) the figure was inactive: -0.007; with PRAME (UniProt P78395), inactive: -0.027; with PRPF4 (UniProt O43172), inactive: 0.005. Take PRMT6 (UniProt Q96LA8): the log2 fold change is inactive: -0.032. As for PPP2CA (UniProt P67775), the log2 fold change is inactive: -0.018. The same measure for PPP3CB isoform 4 (UniProt P16298): inactive: -0.021; for PPME1 (UniProt Q9Y570): inactive: -0.003; for PPP2R1B (UniProt H0YDG7): inactive: 0.275.

As for PRRC2B (UniProt Q5JSZ5), the log2 fold change is inactive: 0.04.

As to PPP4R3A (UniProt Q6IN85), the log2 fold change was inactive: 0.052.
